# PubChem BioAssay (NCATS)
# Inconclusive means that the source gave no clear call. Such entries were picked first, then a sample of the others. Potencies of inconclusive entries are doubtful fits and often do not repeat. Activity calls are given as the source filed them. Unless noted, calls come from the whole dose curve; as a rule, active = well fitted curve in the direction sought with a large enough effect; inconclusive = small, poorly fitted or top-dose-only effect, or another doubt; inactive = no such curve, though single readings can be large; an effect the other way counts as inactive or inconclusive.
# Columns and labels:
# [1] = Quantitative High-Throughput drug screen in 47 multiple myeloma cell lines against the NCATS MIPE library collection: UTMC2_PLB cell viability assay (AID 1919868); settings: CellTiter-Glo ATP luminescence, 48 h; viability (% of DMSO control): at 45.8 µM (top of the series); note: nearly all actives have a fitted effect of over 55% in size;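 for viability (% of DMSO control): 100% = DMSO-only wells and 0% = media-only wells without cells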
# In short: (§1)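 Inhibition of viability over 48 h was scored by ATP content (CellTiter-Glo) in 500-cell wells. Zero and full viability were defined by media-only and DMSO-only wells.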
# [2] = Quantitative High-Throughput drug screen in 47 multiple myeloma cell lines against the NCATS MIPE library collection: PCM6_Riken cell viability assay (AID 1919870); settings: CellTiter-Glo ATP, 48 h; viability (% of control): at 45.8 µM (top of the series); note: nearly all actives have a fitted effect of over 30% in size;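 for viability (% of control): 100% = DMSO-only wells and 0% = media-only wells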
# In short: as §1
# [3] = Quantitative High-Throughput drug screen in 47 multiple myeloma cell lines against the NCATS MIPE library collection: RPMI8226_ATCC cell viability assay (AID 1919871); settings: RPMI8226 myeloma viability, CellTiter-Glo ATP luminescence, 48 h; series mostly up to 45.8 µM; note: nearly all actives have a fitted effect of over 30% in size
# In short: as §1
# [4] = Quantitative High-Throughput drug screen in 47 multiple myeloma cell lines against the NCATS MIPE library collection: KMS11_JCRBsus cell viability assay (AID 1919873); settings: KMS11 myeloma viability, CellTiter-Glo ATP luminescence, 48 h; series mostly up to 45.8 µM; note: nearly all actives have a fitted effect of over 50% in size;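 for viability (% of control): 100% = DMSO-only wells and 0% = media-only wells without cells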
# In short: as §1
# HEK293 = assay: Cytotoxic Profiling of Annotated Libraries Using Quantitative High-Throughput Screening (AID 1296008); settings: Five cell lines viability, CellTiter-Glo ATP luminescence, 48-72 h; max response: hits give low values; note: nearly all actives have a fitted effect of over 60% in size; for max response: % is set by controls: 0 for no effect and ±100 for the full control effect
# In short: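 Cytotoxicity was measured as CellTiter-Glo ATP luminescence, read after 10 min at room temperature. Compound treatment of the cells lasted 48 or 72 hr at 37 degrees Celsius in a qHTS format.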
# [5] = qHTS for identification of novel therapeutic agents for treatment of microphthalmiaassociated transcription factor (MiT) renal cell carcinoma (RCC) (AID 1963991; calls by dose curve); settings: TFE3-RCC UOK109 viability, CellTiter-Glo, 48 h; active = Z-AUC below -0.8 in all three lines
# In short: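 Viability of three TFE3-fusion renal carcinoma lines measured by CellTiter-Glo after 48 h treatment with each of 1912 compounds at 11 concentrations. Responses scaled between DMSO (100%) and empty wells (0%) before curve fitting.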
# [6] = Quantitative High-Throughput drug screen in 47 multiple myeloma cell lines against the NCATS MIPE library collection: OPM2_DSMZ cell viability assay (AID 1919872); settings: OPM2 myeloma viability, CellTiter-Glo ATP luminescence, 48 h; series mostly up to 45.8 µM; note: nearly all actives have a fitted effect of over 30% in size
# In short: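 Viability readout: CellTiter-Glo luminescence following 5 min room-temperature incubation with reagent. Prior exposure: 48 h, 37C, humidified 5% CO2, 500 cells per well.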
# [7] = Quantitative High-Throughput drug screen in 47 multiple myeloma cell lines against the NCATS MIPE library collection: KMS28BM_JCRB cell viability assay (AID 1919874); settings: CellTiter-Glo ATP, 48 h; series mostly up to 45.8 µM; note: nearly all actives have a fitted effect of over 35% in size
# In short: as §1
# [8] = Quantitative High-Throughput drug screen in 47 multiple myeloma cell lines against the NCATS MIPE library collection: PE2_PLB cell viability assay (AID 1919869); settings: PE2_PLB myeloma cells viability, ATP luminescence, 48 h; series mostly up to 45.8 µM; note: nearly all actives have a fitted effect of over 35% in size
# In short: as §1
# Potency is the fitted concentration of half-maximal effect.
Structure (SMILES),Potency [1],Potency [2],Potency [3],Potency [4],Potency (HEK293),Potency [5],Potency [6],Potency [7],max response (HEK293),Potency [8]
CC[C@H]1OC(=O)[C@H](C)[C@@H](O[C@H]2C[C@@](C)(OC)[C@@H](O)[C@H](C)O2)[C@H](C)[C@@H](O[C@@H]2O[C@H](C)C[C@H](N(C)C)[C@@H]2O)[C@](C)(O)C[C@@H](C)CN(C)[C@H](C)[C@@H](O)[C@]1(C)O,"inconclusive: 2.64 µM [cytotoxic, full curve, poor fit]","inconclusive: 0.59 µM [cytotoxic, full curve, poor fit]",active: 18.7 µM,inactive,"inconclusive: 33.2 µM [inhibitor, single point]",,,,,
N#Cc1ccc(Oc2ccc3c(c2)COB3O)cc1,"inconclusive: 1.48 µM [rising, full curve, poor fit]","inconclusive: 18.7 µM [cytotoxic, partial curve, poor fit]",inactive,"inconclusive: 29.6 µM [cytotoxic, single point]","inconclusive: 33.2 µM [inhibitor, single point]","inconclusive: 29.6 µM [falling, single point]",,,,
Clc1ccc(C(c2ccccc2Cl)C(Cl)Cl)cc1 (stereo unspecified),"inconclusive: 9.35 µM [cytotoxic, full curve, poor fit]",,active: 23.5 µM,,"inconclusive: 37.2 µM [inhibitor, single point]",inconclusive: 26.4 µM [single point],"inconclusive: 29.6 µM [cytotoxic, single point]",active: 16.6 µM,,
CN(C)CCC=C1c2ccccc2COc2ccc(CC(=O)O)cc21,"inconclusive: 0.0066 µM [rising, full curve, poor fit]",inactive,inactive,,"inconclusive: 37.2 µM [inhibitor, single point]",,,inactive,,
O=C(OC1C[C@H]2CC[C@@H](C1)[N+]21CCCC1)C(O)(c1ccccc1)c1ccccc1 (stereo partly specified),inactive,inactive,inactive,inactive,,,,,inactive: 3.35%,
CC1CCC(C(=O)N(c2cc(C#CC(C)(C)C)sc2C(=O)O)C2CCC(O)CC2)CC1 (stereo unspecified),"inconclusive: 37.2 µM [cytotoxic, single point]",,"inconclusive: 14.8 µM [cytotoxic, partial curve, poor fit]","inconclusive: 0.0187 µM [cytotoxic, full curve, poor fit]","inconclusive: 37.2 µM [inhibitor, single point]",,,"inconclusive: 4.69 µM [cytotoxic, partial curve, poor fit]",,"inconclusive: 33.2 µM [cytotoxic, single point]"
CC#CCn1c(N2CCC[C@@H](N)C2)nc2c1c(=O)n(Cc1nc(C)c3ccccc3n1)c(=O)n2C,"inconclusive: 0.003 µM [rising, full curve, poor fit]",,,inactive,,"inconclusive: 18.7 µM [falling, partial curve]","inconclusive: 16.6 µM [cytotoxic, partial curve, poor fit]",,inactive: -21.1%,"inconclusive: 37.2 µM [cytotoxic, single point]"
CC(=O)O[C@]1(C(C)=O)CC[C@H]2[C@@H]3C=C(Cl)C4=CC(=O)[C@@H]5C[C@H]5[C@]4(C)[C@@H]3CC[C@@]21C,"inconclusive: 9.35 µM [cytotoxic, partial curve, poor fit]","inconclusive: 8.33 µM [cytotoxic, full curve, poor fit]",,inactive,"inconclusive: 29.6 µM [inhibitor, single point]","inconclusive: 18.7 µM [falling, partial curve]",,,,
CCN(C(=O)c1c(O)c2c(Cl)cccc2n(C)c1=O)c1ccccc1,"inconclusive: 20.9 µM [cytotoxic, partial curve, poor fit]",inactive,,,active: 4.18 µM,,,,,
CCOC(=O)Nc1ccc(NCc2ccc(F)cc2)nc1N,inactive,,,,"inconclusive: 10.5 µM [inhibitor, full curve, poor fit]",,,"inconclusive: 37.2 µM [cytotoxic, single point]",,"inconclusive: 23.5 µM [cytotoxic, partial curve, poor fit]"
